According to doi:10.1101/2020.06.18.157545:
Results are given in words; binding and its absence hold for the method and conditions named.

Columns and labels:
[1] = molecular target: human acyl protein thioesterase 1 (APT1), wildtype (human), O75608; experiment: SEC-MALS; settings: remark: other sources report otherwise
[2] = molecular target: human acyl protein thioesterase 2 (APT2, LYPLA2), wildtype (human), O95372; experiment: SEC-MALS; settings: remark: other sources report otherwise

Binder | binding [1] | binding [2]
human acyl protein thioesterase 1 (APT1), wildtype, O75608 1-230 (enzyme) MCGNNMSTPLPAIVPAARKATAAVIFLHGLGDTGHGWAEAFAGIRSSHIKYICPHAPVRPVTLNMNVAMPSWFDIIGLSPDSQEDESGIKQAAENIKALIDQEVKNGIPSNRIILGGFSQGGALSLYTALTTQQKLAGVTALSCWLPLRASFPQGPIGGANRDISILQCHGDCDPLVPLMFGSLTVEKLKTLVNPANVTFKTYEGMMHSSCQQEMMDVKQFIDKLLPPID | no binding (tested: 40 μM) | 
human acyl protein thioesterase 2 (APT2, LYPLA2), wildtype, O95372 1-231 (enzyme) MCGNTMSVPLLTDAATVSGAERETAAVIFLHGLGDTGHSWADALSTIRLPHVKYICPHAPRIPVTLNMKMVMPSWFDLMGLSPDAPEDEAGIKKAAENIKALIEHEMKNGIPANRIVLGGFSQGGALSLYTALTCPHPLAGIVALSCWLPLHRAFPQAANGSAKDLAILQCHGELDPMVPVRFGALTAEKLRSVVTPARVQFKTYPGVMHSSCPQEMAAVKEFLEKLLPPV |  | no binding (tested: 40 μM)
